{"sequences": {"note": "Protein sequences, listed by entry. Tags and fused reporters are not part of them. Residues count along the entry.", "UniProt P03496, residues 79-230": "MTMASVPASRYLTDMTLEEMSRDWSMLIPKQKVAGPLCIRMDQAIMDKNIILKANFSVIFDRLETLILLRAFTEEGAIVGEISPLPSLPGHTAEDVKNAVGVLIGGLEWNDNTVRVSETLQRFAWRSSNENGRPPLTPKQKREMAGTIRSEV"}, "source": "paper PMC9321973", "binders": {"B1": {"name": "2-Methoxy-6-polyprenyl-1,4-benzoquinol methylase, mitochondrial (protein, UniProt Q5HYK3 43-327)", "chain": "LSQEKRAAETHFGFETVSEEEKGGKVYQVFESVAKKYDVMNDMMSLGIHRVWKDLLLWKMHPLPGTQLLDVAGGTGDIAFRFLNYVQSQHQRKQKRQLRAQQNLSWEEIAKEYQNEEDSLGGSRVVVCDINKEMLKVGKQKALAQGYRAGLAWVLGDAEELPFDDDKFDIYTIAFGIRNVTHIDQALQEAHRVLKPGGRFLCLEFSQVNNPLISRLYDLYSFQVIPVLGEVIAGDWKSYQYLVESIRRFPSQEEFKDMIEDAGFHKVTYESLTSGIVAIHSGFKL"}, "B2": {"name": "Probable ATP-dependent RNA helicase DDX47 (protein, UniProt Q9H0S4 1-455)", "chain": "MAAPEEHDSPTEASQPIVEEEETKTFKDLGVTDVLCEACDQLGWTKPTKIQIEAIPLALQGRDIIGLAETGSGKTGAFALPILNALLETPQRLFALVLTPTRELAFQISEQFEALGSSIGVQSAVIVGGIDSMSQSLALAKKPHIIIATPGRLIDHLENTKGFNLRALKYLVMDEADRILNMDFETEVDKILKVIPRDRKTFLFSATMTKKVQKLQRAALKNPVKCAVSSKYQTVEKLQQYYIFIPSKFKDTYLVYILNELAGNSFMIFCSTCNNTQRTALLLRNLGFTAIPLHGQMSQSKRLGSLNKFKAKARSILLATDVASRGLDIPHVDVVVNFDIPTHSKDYIHRVGRTARAGRSGKAITFVTQYDVELFQRIEHLIGKKLPGFPTQDDEVMMLTERVAEAQRFARMELREHGEKKKRSREDAGDNDDTEGAIGVRNKVAGGKMKKRKGR"}, "B3": {"name": "Zinc finger CCCH-type antiviral protein 1-like (protein, UniProt Q96H79 1-300)", "chain": "MAEPTVCSFLTKVLCAHGGRMFLKDLRGHVELSEARLRDVLQRAGPERFLLQEVETQEGLGDAEAEAAAGAVGGGGTSAWRVVAVSSVRLCARYQRGECQACDQLHFCRRHMLGKCPNRDCWSTCTLSHDIHTPVNMQVLKSHGLFGLNENQLRILLLQNDPCLLPEVCLLYNKGEALYGYCNLKDKCNKFHVCKSFVKGECKLQTCKRSHQLIHAASLKLLQDQGLNIPSVVNFQIISTYKHMKLHKMLENTDNSSPSTEHSQGLEKQGVHAAGAAEAGPLASVPAQSAKKPCPVSCEK"}, "B4": {"name": "Keratinocyte proline-rich protein (protein, UniProt Q5T749 1-579)", "chain": "MCDQQQIQCRLPLQQCCVKGPSFCSSQSPFAQSQVVVQAPCEMQIVDCPASCPVQVCQVSDQAPCQSQTTQVKCQSKTKQVKGQAQCQSKTTQVKGQAASQSQTSSVQSQAPCQSEVSYVQCEASQPVQTCFVECAPVCYTETCYVECPVQNYVPCPAPQPVQMYRGRPAVCQPQGRFSTQCQYQGSYSSCGPQFQSRATCNNYTPQFQLRPSYSSCFPQYRSRTSFSPCVPQCQTQGSYGSFTEQHRSRSTSRCLPPPRRLQLFPRSCSPPRRFEPCSSSYLPLRPSEGFPNYCTPPRRSEPIYNSRCPRRPISSCSQRRGPKCRIEISSPCCPRQVPPQRCPVEIPPIRRRSQSCGPQPSWGASCPELRPHVEPRPLPSFCPPRRLDQCPESPLQRCPPPAPRPRLRPEPCISLEPRPRPLPRQLSEPCLYPEPLPALRPTPRPVPLPRPGQCEIPEPRPCLQPCEHPEPCPRPEPIPLPAPCPSPEPCRETWRSPSPCWGPNPVPYPGDLGCHESSPHRLDTEAPYCGPSSYNQGQESGAGCGPGDVFPERRGQDGHGDQGNAFAGVKGEAKSAYF"}, "B5": {"name": "14-3-3 protein gamma (protein, UniProt P61981 1-247)", "chain": "MVDREQLVQKARLAEQAERYDDMAAAMKNVTELNEPLSNEERNLLSVAYKNVVGARRSSWRVISSIEQKTSADGNEKKIEMVRAYREKIEKELEAVCQDVLSLLDNYLIKNCSETQYESKVFYLKMKGDYYRYLAEVATGEKRATVVESSEKAYSEAHEISKEHMQPTHPIRLGLALNYSVFYYEIQNAPEQACHLAKTAFDDAIAELDTLNEDSYKDSTLIMQLLRDNLTLWTSDQQDDDGGEGNN"}, "B6": {"name": "Tripartite motif-containing protein 29 (protein, UniProt Q14134 1-588)", "chain": "MEAADASRSNGSSPEARDARSPSGPSGSLENGTKADGKDAKTTNGHGGEAAEGKSLGSALKPGEGRSALFAGNEWRRPIIQFVESGDDKNSNYFSMDSMEGKRSPYAGLQLGAAKKPPVTFAEKGELRKSIFSESRKPTVSIMEPGETRRNSYPRADTGLFSRSKSGSEEVLCDSCIGNKQKAVKSCLVCQASFCELHLKPHLEGAAFRDHQLLEPIRDFEARKCPVHGKTMELFCQTDQTCICYLCMFQEHKNHSTVTVEEAKAEKETELSLQKEQLQLKIIEIEDEAEKWQKEKDRIKSFTTNEKAILEQNFRDLVRDLEKQKEEVRAALEQREQDAVDQVKVIMDALDERAKVLHEDKQTREQLHSISDSVLFLQEFGALMSNYSLPPPLPTYHVLLEGEGLGQSLGNFKDDLLNVCMRHVEKMCKADLSRNFIERNHMENGGDHRYVNNYTNSFGGEWSAPDTMKRYSMYLTPKGGVRTSYQPSSPGRFTKETTQKNFNNLYGTKGNYTSRVWEYSSSIQNSDNDLPVVQGSSSFSLKGYPSLMRSQSPKAQPQTWKSGKQTMLSHYRPFYVNKGNGIGSNEAP"}}, "note": "These are yes or no findings as the source states them, for the method shown. In cells and extracts the contact can be indirect. A yes stands for co-enrichment or nearness to the bait. Other partners may have been found.", "data": [{"biological_target": "3×FLAG-tagged N-terminus-truncated NS1 protein (amino acids 79–230) of influenza A virus PR8(H1N1) (influenza virus A/PR8/34 (H1N1)) (UniProt P03496)", "experiment": "affinity purification with mass spectrometry", "values": [{"binder": "B1", "binding": "binds"}, {"binder": "B2", "binding": "binds"}, {"binder": "B3", "binding": "binds"}, {"binder": "B4", "binding": "binds"}, {"binder": "B5", "binding": "binds"}, {"binder": "B6", "binding": "binds"}]}]}
